PubChem BioAssay AID602254 (Broad Institute, 2012)
Screen size: about 1,000 compounds; fewer than 10 were called active.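 How the source made its calls: active means fitted half-maximal concentration no higher than twice the top valid tested dose, with signal falling; inconclusive means flat curve with 30 to 70% inhibition, or poor fit; inactive means the rest.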 The list shows a part of the results. Entries with a potency or affinity are not part of this list.

molecular target: Golgi-associated PDZ and coiled-coil motif-containing protein (Homo sapiens) (UniProt Q9HD26); assay: blockers of CAL PDZ–TMR peptide complex – biochemical, fluorescence polarization, untagged CAL PDZ, cherry-pick, set 2, dose response (AID 602254); conditions: Purified CAL PDZ; at 60 µM (top of the series);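 further: 0% = DMSO neutral control and -100% = unlabeled peptide PRC23 positive control; more negative means stronger blocking of peptide binding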

Activity change, negative = inhibition, inactive:
COc1ccccc1N(CC(=O)N1CCN(c2ccccc2)CC1)S(=O)(=O)c1ccc(C)cc1 -2.13%
O=C(Cn1c(=O)oc2cc(S(=O)(=O)N3CCCC3)ccc21)Nc1ccccc1Br -0.669%
CC(C)C(=O)N1CCN(c2ccccc2NC(=O)c2cccc3ccccc23)CC1 4.14%
COCCOc1cc2ncnc(N3CCC(C(=O)O)CC3)c2cc1OCCOC 6.1%
CCCCOC(=O)c1ccc(NC(=O)C2CCCO2)cc1 (centres undefined) -0.656%
CSc1ccccc1C(=O)NCCCn1ccnc1 -0.752%
O=C(COC(=O)c1ccccn1)Nc1ccc2c(c1)OCCO2 -2.11%
COCCNC(=O)C(=O)NCCN1CCNCC1 -3.25%
Cc1cc(C)n(C(=O)c2cccc(S(=O)(=O)N3CCOCC3)c2)n1 0.568%
Cc1ccc2c(c1)N(CC(=O)Nc1ccccc1F)C(=O)CO2 0.409%
COc1ccccc1C(=O)N/N=C(\C)CC(=O)Nc1ccc(Cl)cn1 -2.34%
COc1ccc(CCNS(=O)(=O)c2ccc3c(c2)OCCO3)cc1OC -3.02%
COc1ccccc1N1CCN(C2CCCN(C(=O)c3cc(C4CC4)on3)C2)CC1 (centres undefined) -0.75%
CC(NC(=O)c1cc(-c2ccncc2)nc2ccc(Br)cc12)C1CCCO1 (centres undefined) -1.38%
COc1ccc(C(=O)C2CCN(C(=O)c3ccc(OC)cc3)CC2)cc1 5.04%
COc1cc(CC(=O)NCC(C)(C)N2CCOCC2)cc(OC)c1OC 1.26%
CC(=O)c1ccc(N2CCN(S(=O)(=O)c3ccc4c(c3)CC(C)N4C(=O)C3CC3)CC2)cc1 (centres undefined) -0.545%
O=C(C=C1CCN(c2ncc(C(F)(F)F)cc2Cl)CC1)NNC(=O)Nc1ccc(Cl)cc1 -1.48%
COCC(=O)N1CCC(Oc2ccc(C(=O)NCCCn3cccn3)cc2)CC1 -1.01%
CC1CCC(NC(=O)CCN2C(=O)C3CC=CCC3C2=O)CC1 (centres undefined) -1.4%
CC(C)(C)OC(=O)n1cc(C(=O)c2ccccc2O)cn1 1.29%
CC(=O)c1cccc(NC(=O)c2cc(=O)c3ccccc3o2)c1 -1.19%
COC(=O)c1ccc(C(=O)Nc2ccc3nc(-c4ccncc4)[nH]c3c2)cc1 1.34%
CN(C)S(=O)(=O)c1ccc(NC(=O)CN2CCCCCC2)cc1 4.04%
COc1ccccc1NC(=O)Nc1nnc(Cc2ccc(F)cc2)s1 -17.4%
Cc1cc(Br)ccc1NC(=O)CN1CCN(c2ccccn2)CC1 1.33%
CCOc1nc(OCC)nc(-n2cc(-c3ccccc3)nn2)n1 -3.83%
CC(C)(C)OC(=O)N1CCC(NC(=O)c2[nH]cnc2C(=O)Nc2cccc(Cl)c2)CC1 0.132%
CSCCC(NS(=O)(=O)c1ccc(C)cc1)C(=O)N1CCCC1 (centres undefined) 0.533%
COc1cc(S(=O)(=O)Nc2ccc(C(=O)NCC(=O)O)cc2)ccc1NC(C)=O -0.599%
COc1cc(OC)cc(C(=O)NNC(=S)NC(=O)c2cccnc2)c1 -0.291%
CCc1ccc(CN(C)Cc2nc(COc3ccccc3)no2)nc1 3.6%
Cc1cnc(NC(=O)c2ccccn2)s1 0.893%
O=C(c1cc(COc2c(F)cccc2F)on1)N(Cc1ccccc1)CC1CC1 -0.792%
COC(=O)c1cc(S(=O)(=O)NCCN2CCN(c3ccccc3F)CC2)c[nH]1 0.413%
CCOC(=O)c1sc2nc(CSc3ccccc3)[nH]c(=O)c2c1C 1.59%
O=C1NC(=O)/C(=C\c2ccc(O)cc2O)S1 -2.27%
COc1ccc(NC(=O)n2ncc3c(C)cccc32)cc1 2.29%
Cc1cc(=O)c(C(=O)O)nn1-c1cccc(C(F)(F)F)c1 1.63%
NS(=O)(=O)c1cccc(NC(=O)COC(=O)CCC2CCCC2)c1 0.176%
Cc1ccc(OCC(=O)N2CCN(C(=O)c3cccs3)CC2)cc1 0.824%
O=C(N/N=C/c1cccnc1)c1[nH]ncc1Br -2.47%
O=C(c1ccc(N2CCCC2=O)cc1)N1CCN(c2ccccc2F)CC1 -2.28%
O=C(COC(=O)c1cc(=O)[nH]c2ccccc12)Nc1cccc(S(=O)(=O)N2CCOCC2)c1 10.7%
COc1ccccc1Nc1n[nH]c(=S)s1 1.11%
CCOc1ccc(Cn2c(=O)sc3ccccc32)cc1OC 0.621%
O=S(=O)(c1cccc(-c2n[nH]c(=S)o2)c1)N1CCOCC1 -0.742%
COc1ccc(Nc2nc(N3CCN(C)CC3)nc3ccccc23)c(OC)c1 -0.989%
COC(=O)c1ccc(S(=O)(=O)NCCc2ccccc2OC)n1C -1.97%
COc1ccc(N2C(=O)CCC(C(=O)N3CCCCC3)C2c2ccc(F)cc2)cc1 (centres undefined) 0.905%
O=C(CCc1ccccc1F)N1CCN(c2ccc(C(F)(F)F)cn2)CC1 0.287%
COc1cc(SC)ccc1C(=O)OC(C)C(=O)Nc1ccc(NC(C)=O)cc1 (centres undefined) 1.9%
COC(=O)c1ccc(NC(=O)c2ccc(NC(=O)C3CCCO3)cc2)cc1 (centres undefined) 1.55%
COc1cccc(CN2CC(C(=O)NCCc3ccccc3C(F)(F)F)CCC2=O)c1 (centres undefined) 0.507%
Cc1ccnc2nc(C(=O)NCc3ccccc3)nn12 1.22%
Cc1c(C)n(Cc2ccc(F)cc2)c2ccc(C(=O)NCCN3CCOCC3)cc12 -1.37%
CC(C1CC1)N(Cc1ccccc1)C(=S)Nc1ccccc1Cl (centres undefined) 0.214%
Cc1cc(CN(C)C(=O)c2cc(COc3ccc4ncccc4c3)on2)on1 -10.6%
COCCCNC1CS(=O)(=O)CC1O (centres undefined) -0.331%
NC(=O)c1ccc(NC(=O)C2CCCO2)cc1 (centres undefined) -5.94%
COc1ccccc1CC(NC(C)=O)C(=O)NC1CCN(C(=O)Nc2ccccc2Cl)CC1 (centres undefined) -0.247%
CCNC(=O)c1ccccc1NC(=O)C1CC(=O)N(C(C)C)C1 (centres undefined) 2.07%
CC(Oc1ccc(Cl)cc1C(N)=O)C(=O)N1CCc2ccccc21 (centres undefined) -0.08%
Cc1nc(N)[nH]c(=O)c1Oc1cccc(C(F)(F)F)c1 1.66%
CCN(CC)S(=O)(=O)c1ccc(N2CCc3cc(OC)c(OC)cc3C2)nc1 5.3%
CC1CC(C)CN(CCCNS(=O)(=O)c2ccc3c(c2)CCN3C(=O)C2CC2)C1 (centres undefined) -2.92%
Cc1ccc(C)c(N(CC(=O)N2CCCC2)S(C)(=O)=O)c1 6.46%
O=C(Nc1cccnc1)c1cc(-c2ccc(Br)cc2)nc2ccccc12 2.59%
Cc1cccc(NC(=S)NCc2ccc3c(c2)OCO3)c1C 8.22%
COc1cccc(C(=O)COC(=O)c2ccc(NC(C)=O)cc2)c1 -1.68%
CCn1cc(C(=O)N[C@H](C(=O)O)C(C)C)c(=O)c2cc3c(cc21)OCO3 3.8%
CCCCN1CC(C)(C)Oc2cccc(F)c2S1(=O)=O 2.05%
Cc1cnc(NC(=O)NCC2CCCC(CNC(=O)Nc3ncc(C)s3)C2)s1 (centres undefined) -0.336%
COc1cc2c(cc1OC)C(c1ccc(Br)cc1)CC(=O)N2 (centres undefined) 2.27%
C/C(=N\OC(=O)c1cccc(C(F)(F)F)c1)c1sc(-c2ccccc2)nc1C -4.29%
CCc1ccccc1NC(=O)c1cnn(-c2ccccc2)c1C 6.77%
COc1ccc(/C=N/N2CCN(Cc3ccc(C)cc3)CC2)cc1Br 1.63%
Cc1ccc(Cn2c(=O)n(CCC(=O)NCc3ccc4c(c3)OCO4)c(=O)c3ccccc32)cc1 -1.22%
Cc1[nH]c2ccccc2c1C(=O)C(=O)NCCOc1ccccc1 4.7%
CCN(CC)S(=O)(=O)c1ccc(O)c(NC(=O)CN2CCc3ccccc3C2)c1 -0.945%
CCN(CC)CC(=O)NCC1(c2ccccc2)CCOCC1 -1.4%
CN(Cc1nc2ccccc2c(=O)[nH]1)C(=O)c1cccc(NC(=O)c2cccs2)c1 -0.333%
Cc1cccc(N2CCN(C(=O)c3cccc(S(=O)(=O)N4CCCCC4)c3)CC2)c1C -0.092%
Cc1cccc(C)c1NC(=S)NC(C)(C)CO 1.29%
O=C(Nc1ccccc1C(=O)O)c1ccc(NC(=O)C2CCCO2)cc1 (centres undefined) 3.45%
Cc1onc(-c2c(Cl)cccc2Cl)c1C(O)c1ccccc1 (centres undefined) 2.44%
CC(=O)c1cccc(CN2CCN(CCc3ccccc3)C(CCO)C2)c1 (centres undefined) -2.82%
Cc1c(C(=O)N2CCCCCC2)nnn1-c1nonc1N 0.528%
COc1ccc(S(=O)(=O)N2CCC[C@H]2C(=O)NCc2ccc(Cl)cc2)cc1 1.15%
Cc1cc(C)cc(-n2ncc3c2CCCC3NC(=O)C2CCC2)c1 (centres undefined) -1.74%
CCOc1c(C)cc(S(=O)(=O)NCc2ccccn2)c(C)c1C 0.83%
C=CCc1ccc(OCCCCN2CC(C)OC(C)C2)c(OC)c1 (centres undefined) 0.21%
CCOc1ccc(CCNC(=O)CCNS(=O)(=O)c2ccc3c(c2)CCN3C(C)=O)cc1OCC 0.309%
O=C(Nc1ccc(O)cc1)c1ccc(NC(=O)C2CCCO2)cc1 (centres undefined) -1.49%

Arranged by SMILES length (ascending): 3 of the compounds above
Activity change, negative = inhibition, inactive:
CCCCOC(=O)c1ccc(NC(=O)C2CCCO2)cc1 (centres undefined) -0.656%
Cc1cc(CN(C)C(=O)c2cc(COc3ccc4ncccc4c3)on2)on1 -10.6%
Cc1ccc(Cn2c(=O)n(CCC(=O)NCc3ccc4c(c3)OCO4)c(=O)c3ccccc32)cc1 -1.22%

Reprinted from above for reference:
Activity change, negative = inhibition, inactive:
COc1ccc(Nc2nc(N3CCN(C)CC3)nc3ccccc23)c(OC)c1 -0.989%
COC(=O)c1ccc(S(=O)(=O)NCCc2ccccc2OC)n1C -1.97%
